Results on 9 molecules are retold here after PubChem BioAssay AID248 (DTP/NCI, 2004).

The test system of the assay is L1210 leukemia ip in BDF1 mice, survival T/C. The assay is described as follows: NCI In Vivo Anticancer Drug Screen. Data for tumor model L1210 Leukemia (intraperitoneal) in B6D2F1 (BDF1) mice. As to conditions: T/C endpoint: mean survival time, higher T/C = longer survival.
Where [1] appears, read: dose: 28.5 mg/kg/injection, schedule: Q01DX Z (ip), vehicle: carboxymethylcellulose (CMC).
Where [2] appears, read: dose: 140.0 mg/kg/injection, schedule: Q01DX001 (ip), vehicle: saline.
Setting [3] is: dose: 400.0 mg/kg/injection, schedule: Q01DX009 (ip), vehicle: saline with Tween-80.

SMILES strings stand for the structures. The list is a part of this screen's results and no random one: it gathers tests that were run many times, whatever their T/C, doses with no T/C, and many T/C values between a quarter and a half above the control. Other doses and runs of a compound stand elsewhere. T/C gives the treated animals as a percentage of the vehicle group. Some entries give survivors of the animals treated and no T/C: the source holds a T/C of zero for them, seemingly a mark for toxic or unscored doses. Some doses without a T/C left all or most animals alive at the check, yet need not have been tolerated: survival well below the control is almost never listed, so the zero probably covers shortened survival too. Survivors were counted at the toxicity check, usually on the fifth day, unless a day is given; later deaths do not show. Schedule codes are those of the source, read here as Q, the interval in days (D) or hours (H), X, the number of doses. Some schedules carry Z or #; the key to these is not given. Some entries were tested several times; the values are given in rising order. Where survival is the endpoint, the PubChem record calls one and a half times the control and up active, and a quarter to a half above the control has no call in these data; cut-offs in other NCI protocols can differ. Some T/C values are followed by the survivors on the day toxicity was checked, most often the fifth; where none is given, no animal had died by that day.

Turning to `CCOC(=O)NP(=O)(N1CC1)N1CC1`, the T/C (dose: 2.5 mg/kg/injection, schedule: Q#A X Z (ip), vehicle: saline) was 140 % of control; the T/C (dose: 3.0 mg/kg/injection, schedule: Q01DX Z (ip), vehicle: carboxymethylcellulose (CMC)) was 125 % of control; the T/C (dose: 4.4 mg/kg/injection, schedule: Q01DX001 (ip), vehicle: saline) was 135 % of control; the T/C (dose: 4.75 mg/kg/injection, schedule: Q01DX Z (ip), vehicle: carboxymethylcellulose (CMC)) is 131 % of control; the T/C (dose: 5.0 mg/kg/injection, schedule: Q01DX Z (im), vehicle: saline) is 134 % of control; the T/C (dose: 5.0 mg/kg/injection, schedule: Q01DX Z (ip), vehicle: saline) is 137 % of control. The T/C reads like this: (dose: 5.0 mg/kg/injection, schedule: Q#A X Z (ip), vehicle: saline) 149 % of control; (dose: 6.0 mg/kg/injection, schedule: Q01DX Z (ip), vehicle: carboxymethylcellulose (CMC)) 148 % of control; (dose: 8.7 mg/kg/injection, schedule: Q01DX001 (ip), vehicle: saline) 127 % of control; (dose: 10.0 mg/kg/injection, schedule: Q01DX Z (sc), vehicle: saline) 141 % of control; (dose: 12.0 mg/kg/injection, schedule: Q01DX Z (ip), vehicle: carboxymethylcellulose (CMC)) 138 % of control; (dose: 17.5 mg/kg/injection, schedule: Q01DX001 (ip), vehicle: saline, evaluated on day 30) 118 and 123 % of control. Further, the T/C was 138 and 156 % of control (dose: 17.5 mg/kg/injection, schedule: Q01DX001 (ip), vehicle: saline, run until all animals had died); 136 % of control (dose: 17.5 mg/kg/injection, schedule: Q07DX003 (ip), vehicle: saline); 113, 147, 156, 196 % of control (dose: 19.0 mg/kg/injection, schedule: Q01DX Z (ip), vehicle: carboxymethylcellulose (CMC)); 126 % of control [5 of 6 alive] (dose: 20.0 mg/kg/injection, schedule: Q01DX Z (ip), vehicle: saline); 136 % of control (dose: 20.0 mg/kg/injection, schedule: Q01DX Z (oral), vehicle: saline); 126 % of control under setting [1]. The T/C is, setting by setting: (dose: 35.0 mg/kg/injection, schedule: Q01DX001 (ip), vehicle: saline, evaluated on day 30) 143 and 253 % of control; (dose: 35.0 mg/kg/injection, schedule: Q01DX001 (ip), vehicle: saline, run until all animals had died) 144 and 165 % of control; (dose: 35.0 mg/kg/injection, schedule: Q07DX001 (ip), vehicle: saline) 138 % of control; (dose: 40.0 mg/kg/injection, schedule: Q01DX006 (iv), vehicle: saline) 134 % of control [5 of 6 alive]; (dose: 40.0 mg/kg/injection, schedule: Q01DX Z (sc), vehicle: saline) 149 % of control; (dose: 70.0 mg/kg/injection, schedule: Q01DX001 (ip), vehicle: saline, evaluated on day 30) 223 and 239 % of control. The T/C is, setting by setting: (dose: 70.0 mg/kg/injection, schedule: Q01DX001 (ip), vehicle: saline, run until all animals had died) 193 and 218 % of control [4 of 6 alive]; under setting [2], 102 % of control. Also, the survivor count was 2 of 6 (dose: 20.0 mg/kg/injection, schedule: Q#A X Z (ip), vehicle: saline); 6 of 10 under setting [1]; 4 of 10 (dose: 38.0 mg/kg/injection, schedule: Q01DX Z (ip), vehicle: carboxymethylcellulose (CMC)); 0 of 10 and 9 of 10 (dose: 47.5 mg/kg/injection, schedule: Q01DX Z (ip), vehicle: carboxymethylcellulose (CMC)); 6 of 6 (dose: 48.0 mg/kg/injection, schedule: Q01DX Z (ip), vehicle: carboxymethylcellulose (CMC)); 5 of 6 (dose: 60.0 mg/kg/injection, schedule: Q03DX007 (ip), vehicle: saline). Besides, the survivor count reads like this: (dose: 80.0 mg/kg/injection, schedule: Q01DX006 (iv), vehicle: saline) 3 of 6; (dose: 80.0 mg/kg/injection, schedule: Q01DX Z (oral), vehicle: saline) 3 of 6; (dose: 96.0 mg/kg/injection, schedule: Q01DX Z (ip), vehicle: carboxymethylcellulose (CMC)) 6 of 6; (dose: 120.0 mg/kg/injection, schedule: Q03DX007 (ip), vehicle: saline) 2 of 6; under setting [2], 1 of 6 and 2 of 6; (dose: 140.0 mg/kg/injection, schedule: Q07DX001 (ip), vehicle: saline) 3 of 6. The survivor count was 4 of 6 (dose: 160.0 mg/kg/injection, schedule: Q01DX006 (iv), vehicle: saline); 1 of 6 (dose: 160.0 mg/kg/injection, schedule: Q01DX Z (oral), vehicle: saline); 4 of 6 (dose: 160.0 mg/kg/injection, schedule: Q01DX Z (sc), vehicle: saline); 1 of 6 (dose: 280.0 mg/kg/injection, schedule: Q01DX001 (ip), vehicle: saline); 2 of 6 (dose: 280.0 mg/kg/injection, schedule: Q07DX001 (ip), vehicle: saline); 5 of 6 (dose: 320.0 mg/kg/injection, schedule: Q01DX Z (sc), vehicle: saline).

For `CS(=O)(=O)OCCN(Cc1ccc(OS(C)(=O)=O)cc1)S(C)(=O)=O`, the survivor count under setting [3] was 5 of 6.

In the case of `O=S1CCCO1` (stereo not given), the survivor count (dose: 150.0 mg/kg/injection, schedule: Q01DX001 (ip), vehicle: saline) is 1 of 6 and the survivor count (dose: 300.0 mg/kg/injection, schedule: Q01DX001 (ip), vehicle: saline) was 0 of 6.

In the case of `CNC(=O)Nc1cccc(OC(=O)NC(C)(C)C)c1`, under setting [3], the survivor count is 6 of 6.

In the case of `CCOC(=O)CNc1cc(N)ncn1`, the survivor count (dose: 200.0 mg/kg/injection, schedule: Q01DX009 (ip), vehicle: saline) was 0 of 3.

With `O=C1C2CCN(CC2)C1Cc1ccccc1` (stereo not given), the survivor count (dose: 400.0 mg/kg/injection, schedule: Q04DX002 (ip), vehicle: saline) is 0 of 3.

For the molecule `O=C(O)C(CSC(c1ccccc1)(c1ccccc1)c1ccccc1)N=Cc1ccccc1O` (stereo not given), the T/C reads like this: (dose: 178.0 mg/kg/injection, schedule: Q01DX001 (ip), vehicle: saline) 133 % of control; (dose: 400.0 mg/kg/injection, schedule: Q01DX001 (ip), vehicle: saline) 145 % of control [5 of 6 alive].

As to `COC(=O)c1cc(Cl)cc(C(=O)OC)n1`, under “dose: 100.0 mg/kg/injection, schedule: Q01DX009 (ip), vehicle: saline”, the survivor count was 5 of 6.

For the molecule `c1ccc(C[Se]Cc2ccccc2)cc1`, the survivor count (dose: 200.0 mg/kg/injection, schedule: Q04DX003 (ip), vehicle: other) was 3 of 6 and the survivor count (dose: 400.0 mg/kg/injection, schedule: Q04DX003 (ip), vehicle: other) is recorded as 0 of 6.
